# Measured values: PubChem BioAssay AID624297 (National Center for Advancing Translational Sciences (NCATS), 2012)
# Several values for one entry are separate records, joined by “and”; a condition that tells them apart may be missing. Equal values may be shown once. Hit rate of the full screen: of about 340,000 compounds, about 6,200 (1.8%) were called active. The inconclusive results got no clear call from the source; some entries with a clear call stand among them for comparison. Calls come from the whole dose curve; as a rule, active = well fitted activation curve with a large enough effect; inconclusive = small, poorly fitted or top-dose-only effect; inactive = no such curve, though single readings can be large or run the other way. Potencies beside an inconclusive call are fits to weak or partial responses and may not hold up. More than one record can exist for a structure, and the calls need not agree.
# Assay: A quantitative high throughput screen for small molecules that induce DNA re-replication in SW480 colon adenocarcinoma cells. For re-replication activation: % of control where 0% means no effect. Note: nearly all actives have a fitted effect of over 55% in size.
# Conditions: Hoechst DNA content imaging, 48 h; re-replication activation: at 46.1 µM (top of the series) unless noted
# Outline: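 DNA re-replication was detected as more nuclei of elevated Hoechst intensity after 48 hr exposure to compound (23 nL pinned per well of 250 cells).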
# Potency is the fitted concentration of half-maximal effect.
Structure (SMILES),Potency,re-replication activation
O=C(O)CNc1ccccc1C(=O)O,"inconclusive: 16.4 µM [activator, partial curve, poor fit]",
CN1CCN(c2ccc(NC(=S)NC(=O)c3cccc4ccccc34)cc2)CC1,"inconclusive: 18.4 µM [activator, single point]",
Cc1ccc(S(=O)(=O)c2nc(-c3ccco3)oc2NCC2CCCO2)cc1 (stereo not drawn),,inconclusive: -697% [activator]
Cc1ccc2c(c1)C(=O)N1[C@H]3c4ccccc4OC[C@@H]3[C@H](c3ccccc3)[C@]1(C)C(=O)N2,"inconclusive: 0.0058 µM [activator, full curve, poor fit]",
CCN(CC(=O)NCc1ccc(F)cc1)C(=O)C1CCN(S(=O)(=O)c2ccc(C(C)C)cc2)CC1,,inactive: -2.55%
CC(Oc1ccc(Cl)cc1Cl)C(=O)NCCC1=CCCCC1 (stereo not drawn),,inactive: -0.973%
C=CCSc1n[nH]c(-c2ccc(OC)cc2)n1,,inactive: 0.112%
Oc1ccc(O)c(-c2cnns2)c1,"inconclusive: 23.1 µM [activator, partial curve, poor fit]",
S=C(NC1CCCCC1)N1CCOCCOCCN(C(=S)NC2CCCCC2)CCOCCOCC1,"inconclusive: 14.6 µM [activator, partial curve, poor fit]",
COc1ccccc1NC(=O)CSc1nc2nc(C)cc(C)c2c(=O)[nH]1,,inactive: 0.439%
CO[C@@]12[C@@H]3N[C@@H]3CN1C1=C(C(=O)C(N)=C(C)C1=O)[C@@H]2COC(N)=O,"inconclusive: 2.31 µM [activator, partial curve, poor fit]",
Cn1cc(C(=O)CCl)c2ccccc21,,inactive: 9.66%
c1ccc(C2CC(c3ccccc3)C(c3ccccc3)N2)cc1 (stereo not drawn),,inactive: -0.11% [at 9.22 µM]
COc1ccc(-c2nnc(-c3cc(OC)c(OC)c(OC)c3)o2)cc1OC,,inactive: -6.96%
Cc1cc(C)c(OCCN(C)Cc2ccccc2)c(Br)c1,,inactive: 6.07%
O=C(CC1C(=O)NCCN1Cc1ccc(Cl)c(F)c1)NC1CCC1 (stereo not drawn),,inactive: -0.843%
COc1ccc(/C=C/C(=O)c2c(O)cc(C)oc2=O)c(OC)c1,"inconclusive: 18.4 µM [activator, single point]",
Cc1nc(N2CCN(C(=O)c3ccco3)CC2)c2oc3ccccc3c2n1,active: 8.2 µM,
CC(C)C[C@@H](CN)NC(=O)c1nc[nH]c1C(=O)N[C@@H](C)C(=O)CNC[C@H](CC(C)C)NC(=O)c1nc[nH]c1C(=O)N[C@@H](Cc1ccccc1)C(=O)O,,inactive: -8.54%
Oc1c(C(c2ccccn2)N2CCCCC2)cc(Cl)c2cccnc12 (stereo not drawn),"inconclusive: 23.1 µM [activator, single point]",
O=C(CCC(=O)c1ccccc1)Nc1ccccc1OC(F)F,,inactive: -2.72%
C=C1CCN([C@H](C(=O)NCc2ccccc2)C(C)C)S(=O)(=O)c2ccccc21,"inconclusive: 0.731 µM [activator, partial curve, poor fit]",
CC(=O)NCCc1csc(-c2ccccc2)n1,"inconclusive: 29.1 µM [activator, single point]",
N#Cc1cccc(NC(=O)CNc2cccc(S(=O)(=O)N3CCCC3)c2)c1,"inconclusive: 4.11 µM [activator, partial curve, poor fit]",
Cc1cc(NCCCN2CCOCC2)n2c(nc3ccccc32)c1C#N,"inconclusive: 25.9 µM [activator, partial curve, poor fit]",

Structure (SMILES),Potency,re-replication activation
O=C(CNC(=O)c1ccccc1F)NCCc1ccccc1F,,inactive: 6.08%
CCN1CCN(C(=O)c2ccc3c(=O)n(CCc4ccccc4)c(=O)[nH]c3c2)CC1,active: 29.1 µM,
Cc1ccc(NC(=O)N2CCN(C)CC2)cc1NC(=O)N1CCN(C)CC1,"inconclusive: 8.2 µM [activator, partial curve, poor fit]",
O=C(Nc1ccccc1N1CCCC1)C1CCN(S(=O)(=O)c2ccc(F)cc2)CC1,"inconclusive: 23.1 µM [activator, single point]",
CCc1ccc2c(c1)[C@H]1OCC[C@H]1[C@@H](c1cccs1)N2,active: 5.17 µM,
CC(=O)c1ccc(-n2cc(-c3ccc(C(C)(C)C)cc3)[n+]3c2SCCC3)cc1,,inactive: -12.4%
CC(C)(C)c1ccc(C(=O)NCCn2c(N)c(C#N)c3nc4ccccc4nc32)cc1,active: 20.6 µM,
N#Cc1cc(Sc2ccccn2)c([N+](=O)[O-])cc1C#N,"inconclusive: 0.891 µM [activator, full curve, poor fit]",
COc1ccc(Nc2nc(N)nc(CSC(=S)N3CCN(c4ccccc4)CC3)n2)cc1,,inactive: -0.24%
COc1ccc(S(=O)(=O)N2CCCC2CNC(=O)C(=O)NCc2ccco2)cc1 (stereo not drawn),"inconclusive: 2.59 µM [activator, single point]",
COc1ccc2c(c1)CC/C(=C\c1ccc(OC)c(Cn3nc(C)cc3C)c1)C2=O,"inconclusive: 29.1 µM [activator, single point]",
C=CCSC(=S)NC1CCS(=O)(=O)C1 (stereo not drawn),"inconclusive: 29.1 µM [activator, single point]",
Cc1noc(C(=O)NC2CCCCC2)c1Cl,,inactive: 40.8%
Cc1nc(SCC(=O)NC2CCCC2)c2c(C)c(C)sc2n1,,inactive: -0.142%
CCN1CCN(c2ccc(S(=O)(=O)N3CCOCC3)cc2NC(=O)C(C)Oc2ccc(Cl)cc2)CC1 (stereo not drawn),,inactive: -21%
O=C(c1cccc(Cl)c1)C1CCCN(C(=O)c2ccoc2)C1 (stereo not drawn),"inconclusive: 6.51 µM [activator, full curve, poor fit]",
CC1=CC2=NC(=O)/C(=C/c3cccn3Cc3ccccc3)C(=N)N2O1,,inactive: -62.4%
Nc1nc2ccccc2n1/N=C/c1ccc(-c2ccccc2)o1,"inconclusive: 18.4 µM [activator, single point]",
COc1ccc(Cn2c(O)c(/C=N/NC(=O)c3cccnc3)c3ccccc3c2=O)cc1,"inconclusive: 23.1 µM [activator, single point]",
Cc1cc(C(=O)CCC(=O)NCC(=O)Nc2c(C)cccc2C)c(C)s1,,inactive: -1.14%
N#CC(c1ccccc1)N(CCCCl)C(=O)c1ccccc1 (stereo not drawn),active: 14.6 µM,
O=C(c1ccccc1)N1CCN(c2ccc([N+](=O)[O-])c(NCc3cccnc3)c2)CC1,,inactive: 3.02%
Cc1ccc(S(=O)(=O)N2CCN(C(=O)c3cc(S(=O)(=O)N(C)C)ccc3N3CCCC3)CC2)c(C)c1,"inconclusive: 20.6 µM [activator, single point]",
CCc1ccccc1NC(=O)C1(S(=O)(=O)c2ccc(C)cc2)CC1,,inactive: 10.9%
CC(=O)c1c(O)c2ccccc2n(C2CCCCC2)c1=O,"inconclusive: 0.13 µM [activator, full curve, poor fit]",

# 3 entries from above, with tabs:
Structure (SMILES)	Potency	re-replication activation
CCN(CC(=O)NCc1ccc(F)cc1)C(=O)C1CCN(S(=O)(=O)c2ccc(C(C)C)cc2)CC1		inactive: -2.55%
COc1ccc(/C=C/C(=O)c2c(O)cc(C)oc2=O)c(OC)c1	inconclusive: 18.4 µM [activator, single point]	
O=C(CNC(=O)c1ccccc1F)NCCc1ccccc1F		inactive: 6.08%

# (continued)

Structure (SMILES),Potency,re-replication activation
c1ccc2nc(N3CCOCC3)c(N3CCCC3)nc2c1,,inactive: -1.11%
CC(C)c1cc(NCCOCCO)n2c(nc3ccccc32)c1C#N,,inconclusive: 66.1% [activator]
COc1cc(CCNC(=O)c2cnn3ccccc23)cc(OC)c1OC,"inconclusive: 29.1 µM [activator, single point]",
CC(C)(C)C(=O)Cn1ncc(Cl)c(Cl)c1=O,"inconclusive: 8.2 µM [activator, partial curve, poor fit]",
CC(=O)c1cccc(NC(=S)N2c3ccccc3CC2C)c1 (stereo not drawn),,inactive: -8.77%
Cc1ccc(CN2CC(C(=O)N(CC(C)C)c3c(N)n(Cc4ccccc4)c(=O)[nH]c3=O)CC2=O)cc1 (stereo not drawn),,inactive: 1.32%
O=C(CN(C(=O)c1csnn1)c1ccc(Cl)cc1)NCCc1ccccc1,,inactive: 1.05%
CCCCc1oc2ccccc2c1C(=O)c1cc(I)c(OCCN(CC)CC)c(I)c1,active: 20.6 µM and active: 23.1 µM,
O=C(CCCOc1ccccc1)Nc1cccnc1,,inactive: -2.1%
CCOC(=O)C1CCN(c2c(-c3ccccc3)c3cc(Cl)ccc3[nH]c2=O)CC1,"inconclusive: 29.1 µM [activator, partial curve, poor fit]",
CN(Cc1cnc2nc(N)nc(N)c2n1)c1ccc(C(=O)NC(CCC(=O)O)C(=O)O)cc1 (stereo not drawn),,inactive: 12.4%
O=c1c2ccccc2c(/C=N/NS(=O)(=O)c2ccccc2)c(O)n1-c1ccccn1,"inconclusive: 0.103 µM [activator, full curve, poor fit]",
CC(=O)c1ccc(N2CCN(C(=O)c3ccccc3SCC(=O)NCc3ccco3)CC2)c(F)c1,,inactive: -8.3%
CN1CCN(CCCNC(=O)c2ccc3c(c2)N(Cc2ccc(F)cc2)CCS3)CC1,"inconclusive: 29.1 µM [activator, single point]",
C=CCNC(=O)COc1coc(CN2CCN(Cc3ccccc3)CC2)cc1=O,"inconclusive: 4.61 µM [activator, full curve, poor fit]",
CCCCN(CCCC)C(=O)CSc1nnc(-c2cc(OC)c(OC)c(OC)c2)o1,,inactive: -0.0608%
CCN(c1ccc(C(=O)CSc2nnc(C3CC3)n2C2CC2)cc1)S(C)(=O)=O,,inconclusive: -23% [activator]
O=C(Nc1cnccn1)c1ccc(Cl)cc1,"inconclusive: 29.1 µM [activator, single point]",
Fc1ccccc1Nc1nc(NCc2ccco2)nc(N2CCOCC2)n1,"inconclusive: 29.1 µM [activator, single point]",
Fc1ccc2c(c1)C(c1cccnc1)=NNC(c1cccs1)=N2,"inconclusive: 29.1 µM [activator, single point]",
COc1ccc(NC(=S)NCC(c2cccnc2)N2CCOCC2)cc1 (stereo not drawn),,inactive: -3.42%
O=c1c2nncn2c2cccnc2n1CCNc1ncc(C(F)(F)F)cc1Cl,"inconclusive: 3.66 µM [activator, full curve]",
O=c1oc2cc(Br)ccc2n1Cc1ccccc1,"inconclusive: 0.651 µM [activator, partial curve, poor fit]",
